No constants are given. Whether binding was seen depends on the method and setting. In cells and extracts the contact can be indirect. Some entries that bind do so weakly or less than the wild type. For part of these data: Where a sequence is shown, tags or fusion partners need not be part of it. Each block holds one molecule with its values, some of them ahead of it.
Tests used:
[1] = target: Myc-STING, expressed in HEK293T cells (UniProt Q86WV6); assay: co-IP; HEK293T co-transfected with Flag-Gal-9 (or Flag-EV) and Myc-STING for 24 h; extracts precipitated with anti-Myc-beads, blot with anti-Flag
[2] = target: Flag-STING-FL (full length), expressed in HEK293T cells (UniProt Q86WV6); assay: co-IP; HEK293T co-transfected for 24 h, then MG132 (10 uM) for 6 h; extracts precipitated with anti-Flag-beads, blot with anti-HA
[3] = target: endogenous STING of C666-1 cells (human (endogenous in C666-1)) (UniProt Q86WV6); assay: co-IP; extracts of wild type C666-1 cells; precipitated with anti-STING antibody, blot with anti-Gal-9; both endogenous
[4] = target: Flag-Gal-9, stably expressed in TW03 cells (UniProt O00182); assay: co-IP; lysates of TW03 cells stably expressing Flag-EV or Flag-Gal-9; precipitated with anti-Flag-beads, blot with anti-STING
[5] = target: Flag-STING-FL (full length), expressed in HEK293T cells (UniProt Q86WV6); assay: co-IP; HEK293T transfected with Flag-STING and HA-TRIM29, then increasing amounts of Myc-Gal-9 for 24 h; precipitated with anti-Flag-beads, blot with anti-HA
[6] = target: Flag-STING, expressed in C666-1 cells (UniProt Q86WV6); assay: co-IP; C666-1 cells with shRNA against Gal-9 or control vector for 24 h, then HA-TRIM29 and Flag-STING for 24 h; precipitated with anti-Flag-beads, blot with indicated antibodies

Sequences of proteins named here, by UniProt entry; tags and fusion partners are left off.
UniProt Q86WV6: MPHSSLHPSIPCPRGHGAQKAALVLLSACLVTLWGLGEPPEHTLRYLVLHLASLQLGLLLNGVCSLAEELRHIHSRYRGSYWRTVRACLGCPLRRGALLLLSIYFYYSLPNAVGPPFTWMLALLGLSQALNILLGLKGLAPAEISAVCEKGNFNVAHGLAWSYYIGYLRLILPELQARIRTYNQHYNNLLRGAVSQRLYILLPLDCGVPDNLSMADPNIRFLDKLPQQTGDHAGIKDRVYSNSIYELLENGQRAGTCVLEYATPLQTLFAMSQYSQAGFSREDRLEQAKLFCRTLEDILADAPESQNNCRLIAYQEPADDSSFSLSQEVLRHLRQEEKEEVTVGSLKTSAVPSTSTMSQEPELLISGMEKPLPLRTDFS

binding [3]: binds
Molecule: endogenous Gal-9 of C666-1 cells (from UniProt O00182 1-355)

binding [4]: binds
Molecule: endogenous STING of TW03 cells (from UniProt Q86WV6 1-379)

binding [5]: binds
B1: HA-TRIM29, expressed in HEK293T cells (enzyme, UniProt Q14134 1-588)
chain: MEAADASRSNGSSPEARDARSPSGPSGSLENGTKADGKDAKTTNGHGGEAAEGKSLGSALKPGEGRSALFAGNEWRRPIIQFVESGDDKNSNYFSMDSMEGKRSPYAGLQLGAAKKPPVTFAEKGELRKSIFSESRKPTVSIMEPGETRRNSYPRADTGLFSRSKSGSEEVLCDSCIGNKQKAVKSCLVCQASFCELHLKPHLEGAAFRDHQLLEPIRDFEARKCPVHGKTMELFCQTDQTCICYLCMFQEHKNHSTVTVEEAKAEKETELSLQKEQLQLKIIEIEDEAEKWQKEKDRIKSFTTNEKAILEQNFRDLVRDLEKQKEEVRAALEQREQDAVDQVKVIMDALDERAKVLHEDKQTREQLHSISDSVLFLQEFGALMSNYSLPPPLPTYHVLLEGEGLGQSLGNFKDDLLNVCMRHVEKMCKADLSRNFIERNHMENGGDHRYVNNYTNSFGGEWSAPDTMKRYSMYLTPKGGVRTSYQPSSPGRFTKETTQKNFNNLYGTKGNYTSRVWEYSSSIQNSDNDLPVVQGSSSFSLKGYPSLMRSQSPKAQPQTWKSGKQTMLSHYRPFYVNKGNGIGSNEAP

Continued, molecule first:

Molecule: Flag-Gal-9 (galectin-9, full length), expressed in HEK293T cells (from UniProt O00182-1 1-355)
binding [1]: binds

Molecule: HA-Gal-9, expressed in HEK293T cells (from UniProt O00182 1-355)
binding [2]: binds

B2: HA-TRIM29, expressed in C666-1 cells (enzyme, UniProt Q14134 1-588)
chain: MEAADASRSNGSSPEARDARSPSGPSGSLENGTKADGKDAKTTNGHGGEAAEGKSLGSALKPGEGRSALFAGNEWRRPIIQFVESGDDKNSNYFSMDSMEGKRSPYAGLQLGAAKKPPVTFAEKGELRKSIFSESRKPTVSIMEPGETRRNSYPRADTGLFSRSKSGSEEVLCDSCIGNKQKAVKSCLVCQASFCELHLKPHLEGAAFRDHQLLEPIRDFEARKCPVHGKTMELFCQTDQTCICYLCMFQEHKNHSTVTVEEAKAEKETELSLQKEQLQLKIIEIEDEAEKWQKEKDRIKSFTTNEKAILEQNFRDLVRDLEKQKEEVRAALEQREQDAVDQVKVIMDALDERAKVLHEDKQTREQLHSISDSVLFLQEFGALMSNYSLPPPLPTYHVLLEGEGLGQSLGNFKDDLLNVCMRHVEKMCKADLSRNFIERNHMENGGDHRYVNNYTNSFGGEWSAPDTMKRYSMYLTPKGGVRTSYQPSSPGRFTKETTQKNFNNLYGTKGNYTSRVWEYSSSIQNSDNDLPVVQGSSSFSLKGYPSLMRSQSPKAQPQTWKSGKQTMLSHYRPFYVNKGNGIGSNEAP
binding [6]: binds

Source: publication PMC7338349
